Results taken from patent EP0437367A2, “Compositions and methods for inhibiting osteoclast cellular adhesion to bone” (MERCK & CO. INC., priority 1990, dated 1991).
Like-named read-outs stand apart in the source and are kept apart here. At least one peptide structure holds a part that was inferred or is arguable (an end, a ring closure or a residue).

Columns and labels:
Format in all cases: cell-based
rat osteoclasts = target: T1, rat osteoclasts (Rattus norvegicus, UniProt F1LZX9+Q8R2H2); assay: retraction of lamellipodia of rat osteoclasts; conditions: followed for up to 2 hr
T1 sequence (F1LZX9 31-1043): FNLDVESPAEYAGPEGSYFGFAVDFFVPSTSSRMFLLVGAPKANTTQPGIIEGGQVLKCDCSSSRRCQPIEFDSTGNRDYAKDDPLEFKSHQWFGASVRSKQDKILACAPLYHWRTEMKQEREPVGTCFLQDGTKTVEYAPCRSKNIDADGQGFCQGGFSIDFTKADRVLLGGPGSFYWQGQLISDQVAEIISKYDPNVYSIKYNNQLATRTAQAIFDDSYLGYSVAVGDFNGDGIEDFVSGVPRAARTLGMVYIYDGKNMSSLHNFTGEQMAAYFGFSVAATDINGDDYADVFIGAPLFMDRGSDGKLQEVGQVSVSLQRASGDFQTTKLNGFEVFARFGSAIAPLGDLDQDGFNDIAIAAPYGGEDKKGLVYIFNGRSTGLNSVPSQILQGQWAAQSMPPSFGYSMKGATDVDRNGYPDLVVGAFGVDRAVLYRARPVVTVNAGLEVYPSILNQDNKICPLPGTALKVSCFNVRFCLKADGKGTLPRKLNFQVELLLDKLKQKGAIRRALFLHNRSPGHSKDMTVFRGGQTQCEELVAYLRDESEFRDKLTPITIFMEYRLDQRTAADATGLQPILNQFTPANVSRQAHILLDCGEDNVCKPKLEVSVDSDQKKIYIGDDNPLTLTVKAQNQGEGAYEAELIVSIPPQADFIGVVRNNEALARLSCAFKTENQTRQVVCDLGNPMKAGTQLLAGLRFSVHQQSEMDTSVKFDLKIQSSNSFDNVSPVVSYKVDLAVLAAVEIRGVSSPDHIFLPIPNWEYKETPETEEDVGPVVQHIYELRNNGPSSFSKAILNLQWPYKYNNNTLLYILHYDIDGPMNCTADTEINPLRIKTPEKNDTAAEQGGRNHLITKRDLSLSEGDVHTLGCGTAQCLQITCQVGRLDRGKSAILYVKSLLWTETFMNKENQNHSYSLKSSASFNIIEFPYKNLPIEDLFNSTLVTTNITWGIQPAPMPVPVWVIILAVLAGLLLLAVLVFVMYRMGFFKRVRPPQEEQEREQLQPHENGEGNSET
T1 sequence (Q8R2H2 26-787): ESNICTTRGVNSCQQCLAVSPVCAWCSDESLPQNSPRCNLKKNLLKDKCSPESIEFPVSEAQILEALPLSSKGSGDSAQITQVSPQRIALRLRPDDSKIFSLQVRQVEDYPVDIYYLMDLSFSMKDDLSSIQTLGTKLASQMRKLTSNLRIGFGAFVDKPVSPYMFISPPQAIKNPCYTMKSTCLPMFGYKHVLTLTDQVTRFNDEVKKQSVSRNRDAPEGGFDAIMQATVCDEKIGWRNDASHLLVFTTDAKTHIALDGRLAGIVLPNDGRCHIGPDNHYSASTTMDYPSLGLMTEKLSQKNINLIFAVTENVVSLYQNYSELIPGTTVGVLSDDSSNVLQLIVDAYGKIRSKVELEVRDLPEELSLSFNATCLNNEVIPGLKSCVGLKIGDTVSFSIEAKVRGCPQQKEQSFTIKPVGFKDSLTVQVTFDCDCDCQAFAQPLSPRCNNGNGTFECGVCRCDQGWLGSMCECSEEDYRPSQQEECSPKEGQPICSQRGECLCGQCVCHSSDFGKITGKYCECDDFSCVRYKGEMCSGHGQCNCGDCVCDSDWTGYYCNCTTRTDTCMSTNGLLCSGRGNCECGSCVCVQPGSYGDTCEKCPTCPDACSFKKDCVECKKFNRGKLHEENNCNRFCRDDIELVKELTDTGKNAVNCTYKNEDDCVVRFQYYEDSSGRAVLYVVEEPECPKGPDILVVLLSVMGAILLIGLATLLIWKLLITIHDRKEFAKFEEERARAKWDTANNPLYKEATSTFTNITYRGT
Excerpt: Osteoclasts were isolated from the long bones of 1-3 day old rats as described by Chambers et al., J. Cell Sci. 66: 383-399 (1984). Femora, tibiae and humera were dissected clean of soft tissue, split and scrapped with scalpels into 199 media pH 7-7.2 + 10% heat inactivated fetal calf serum + 100 U/ml antibiotics (penicillin G, steptomycin, amphotericin B, Gibco, New York). After gentle pipetting 60x with a wide bore pipette, the cell suspension was passed through a 110 um nylon mesh (Spectra) and aliquoted onto plastic dishes (Costar, Cambridge, MA), No. 1 coverslips (Corning, New York), glass cuvettes (Herminus) or bone slices (Arnett and Dempster, Endocrinology 120: 602-608 (1987)). All experiments with rat osteoclast cultures were conducted within the first 24 hr after isolation.
Rat or chicken osteoclasts were incubated with different concentrations of RGDS, echistatin and Ala²⁴ echistatin. All of these peptides induced morphological changes but rat osteoclasts 1 day after isolation on glass retracted lamellipodia at 10⁵x lower concentrations of echistatin (4.3 nM) compared to RGDS peptide. […] At these concentrations, extension/retraction and ruffling motility of the lamellipodia increased. […]

chicken osteoclasts [1] = assay: resorption by chicken osteoclasts, release of 3H proline from labelled bone particles; conditions: read-out: IC₅₀ of resorption
Method: Osteoclasts from the long bones of egg laying hens were isolated by the methods of Zambonin Zallone et al. (1989) and Blair et al., J. Cell Biol. 102: 1164-1172 (1986). Medullary bone was harvested with scalpels from split femora and tibiae of laying hens (Dekalb XL) that were on a Ca deficient diet (5070C- 9, Purina Mills Inc., St. Louis) for 3-6 wks. After washing in PBS 4°C, the suspension was pressed through a 110 um nylon mesh and then osmotically shocked in 0.2% NaCl for 3 min 37°C to lyse red blood cells. The cells were collected at 350xg (5 min, 4°C), and osteoclasts were sedimented through 70% serum for 90 min at 4°C in 50 ml tubes (Fisher). The bottom 5 ml was then layered over a 3 step (1.073, 1.099, 1.143 g/cm³) Nycodenz gradient (Accurate, Ct) and spun at 350xg, 20 min, 4°C. […] Cells excluding trypan blue (Gibco) were immediately counted on a hemocytometer (Fisher) and aliquoted at 1-2x 10⁶ total cells (not counting red blood cells)/ well of 48 well plates (Costar), no. […]
Therefore, for 1 day resorption experiments, unlabelled bone particles (50 ug, <20 um fraction) were first added to chicken cells at day 3 followed by labelled bone (100 ug, 20- 53 um) plus test compounds (Merck) at day 5. Alternatively, labelled bone (100 ug) plus compounds were added at day 3 and the media counted at day 6 with a LKB liquid scintillation counter. […]

chicken osteoclasts [2] = assay: retraction of lamellipodia of chicken osteoclasts; conditions: chicken osteoclasts after 1 day of isolation

N=C(N)NCCC[C@H](N)C(=O)NCC(=O)N[C@@H](CC(=O)O)C(=O)N[C@@H](CO)C(=O)O [RGDS, Arg-Gly-Asp-Ser] was tested, and the “concentration at which lamellipodia did not retract” value (rat osteoclasts) was 10 µM, the IC50 (chicken osteoclasts [1]; chicken osteoclasts, Graph 2a, 1 day resorption assay) was 10 to 100 µM and the IC50 (chicken osteoclasts [1]; chicken resorption) was 100 µM. For the same compound, the “concentration at which lamellipodia retracted” value (chicken osteoclasts [2]) was 0.1 mM.
